From patent US7709509B2, “Oxadiazolones and derivatives thereof as peroxisome proliferator-activated receptor (PPAR) delta agonists” (Sanofi-Aventis Deutschland GmbH, priority 2004, dated 2010)
Some entries share one result that the patent states for a list of compounds.

Target: T1, human PPARalpha (Homo sapiens, UniProt Q07869)
T1 construct: human PPARalpha receptor (amino acids S167-Y468); expressed in transfected cells; host or cells: HEK cells, stably transfected (pcDNA3, CMV promoter)
T1 sequence (Q07869 167-468): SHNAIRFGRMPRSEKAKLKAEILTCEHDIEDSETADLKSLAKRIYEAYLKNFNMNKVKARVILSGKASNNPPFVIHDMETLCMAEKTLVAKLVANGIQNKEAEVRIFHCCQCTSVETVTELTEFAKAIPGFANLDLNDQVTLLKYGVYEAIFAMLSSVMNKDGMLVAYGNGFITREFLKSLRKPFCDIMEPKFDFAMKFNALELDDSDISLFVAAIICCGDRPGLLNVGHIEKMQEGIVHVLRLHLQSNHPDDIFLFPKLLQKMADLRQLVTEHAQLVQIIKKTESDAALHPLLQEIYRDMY
Test: Cellular PPARalpha assay (HEK PPARalpha reporter cell line, luciferase)
Assay type: cell-based
Details: units nM and μM inside the value; read-out: PPARalpha EC50 values (range over examples)
Method: Determination of EC50 Values of PPAR Agonists in the Cellular PPARalpha Assay
The potency of substances which bind to human PPARalpha and activate it in an agonistic manner is analyzed using a stably transfected HEK cell line (HEK=human embryo kidney) which is referred to here as PPARalpha reporter cell line. It contains two genetic elements, a luciferase reporter element (pdeltaM-GAL4-Luc-Zeo) and a PPARalpha fusion protein (GR-GAL4-humanPPARalpha-LBD) which mediates expression of the luciferase reporter element depending on a PPARalpha ligand. The stably and constitutively expressed fusion protein GR-GAL4-humanPPARalpha-LBD binds in the cell nucleus of the PPARalpha reporter cell line via the GAL4 protein portion to the GAL4 DNA binding motifs 5′-upstream of the luciferase reporter element which is stably integrated in the genome of the cell line. There is only weak expression of the luciferase reporter gene in the absence of a PPARalpha ligand if fatty acid-depleted fetal calf serum (cs-FCS) is used in the assay. PPARalpha ligands bind and activate the PPARalpha fusion protein and thereby stimulate the expression of the luciferase reporter gene. The luciferase which is formed can be detected by means of chemiluminescence via an appropriate substrate.
The PPARalpha reporter cell line was prepared in two stages. Firstly, the luciferase reporter element was constructed and stably transfected into HEK cells. For this purpose, five binding sites of the yeast transcription factor GAL4 (Accession # AF264724) were cloned in 5′-upstream of a 68 bp-long minimal MMTV promoter (Accession # V01175). The minimal MMTV promoter section contains a CCAAT box and a TATA element in order to enable efficient transcription by RNA polymerase II. The cloning and sequencing of the GAL4-MMTV construct took place in analogy to the description of Sambrook J. et al. (Molecular cloning, Cold Spring Harbor Laboratory Press, 1989). Then the complete Photinus pyralis gene (Accession # M15077) was cloned in 3′-downstream of the GAL4-MMTV element. After sequencing, the luciferase reporter element consisting of five GAL4 binding sites, MMTV promoter and luciferase gene was recloned into a plasmid which confers zeocin resistance in order to obtain the plasmid pdeltaM-GAL4-Luc-Zeo. This vector was transfected into HEK cells in accordance with the statements in Ausubel, F. M. et al. (Current protocols in molecular biology, Vol. 1-3, John Wiley & Sons, Inc., 1995).
In a second step, the PPARalpha fusion protein (GR-GAL4-humanPPARalpha-LBD was introduced into the stable cell clone described. For this purpose, initially the cDNA coding for the N-terminal 76 amino acids of the glucocorticoid receptor (Accession # P04150) was linked to the cDNA section coding for amino acids 1-147 of the yeast transcription factor GAL4 (Accession # P04386). The cDNA of the ligand-binding domain of the human PPARalpha receptor (amino acids S167-Y468; Accession # S74349) was cloned in at the 3′-end of this GR-GAL4 construct. The fusion construct prepared in this way (GR-GAL4-humanPPARalpha-LBD) was recloned into the plasmid pcDNA3 (Invitrogen) in order to enable constitutive expression therein by the cytomegalovirus promoter. This plasmid was linearized with a restriction endonuclease and stably transfected into the previously described cell clone containing the luciferase reporter element. The finished PPARalpha reporter cell line which contains a luciferase reporter element and constitutively expresses the PPARalpha fusion protein (GR-GAL4-human PPARalpha-LBD) was isolated by selection with zeocin (0.5 mg/ml) and G418 (0.5 mg/ml).
The activity of PPARalpha agonists is determined in a 3-day assay, which is described below: […]

Structure (SMILES) | EC50
CCCCc1nc(-c2ccc(C(F)(F)F)cc2)sc1COc1ccc(-c2noc(=O)[nH]2)c([S+](C)[O-])c1 (stereo not drawn) [Example 24, 3-{4-[4-Butyl-2-(4-trifluoromethyl-phenyl)-thiazol-5-ylmethoxy]-2-methylsulfinyl-phenyl}-4H-[1,2,4]oxadiazol-5-one] | ≥ 100 nM
CCCCc1nc(-c2ccc(C(F)(F)F)cc2)sc1COc1ccc(-c2noc(=O)[nH]2)c(S(C)(=O)=O)c1 [Example 25, 3-{4-[4-Butyl-2-(4-trifluoromethyl-phenyl)-thiazol-5-ylmethoxy]-2-methanesulfonyl-phenyl}-4H-[1,2,4]oxadiazol-5-one] | ≥ 100 nM
CCCCc1nc(-c2ccc(C(F)(F)F)cc2)sc1C[S+]([O-])c1ccc(-c2noc(=O)[nH]2)cc1 (stereo not drawn) [Example 26, 3-{4-[4-Butyl-2-(4-trifluoromethyl-phenyl)-thiazol-5-ylmethanesulfinyl]-phenyl}-4H-[1,2,4]oxadiazol-5-one] | ≥ 100 nM
CCCCc1nc(-c2ccc(C(F)(F)F)cc2)sc1CS(=O)(=O)c1ccc(-c2noc(=O)[nH]2)cc1 [Example 27, 3-{4-[4-Butyl-2-(4-trifluoromethyl-phenyl)-thiazol-5-ylmethylsulfonyl]-phenyl}-4H [1,2,4]oxadiazol-5-one] | ≥ 100 nM
CCCCc1nc(-c2ccc(C(F)(F)F)cc2)sc1COCc1ccc(-c2noc(=O)[nH]2)c(F)c1 [Example 28, 3-{4-[4-Butyl-2-(4-trifluoromethyl-phenyl)-thiazol-5-ylmethoxymethyl]-2-fluoro-phenyl}-4H-[1,2,4]oxadiazol-5-one] | ≥ 100 nM
Cc1nc(-c2ccc(C(F)(F)F)cc2)sc1COCc1ccc(-c2noc(=O)[nH]2)cc1 [Example 29, 3-{4-[4-Methyl-2-(4-trifluoromethyl-phenyl)-thiazol-5-ylmethoxymethyl]-phenyl}-4H-[1,2,4]oxadiazol-5-one] | ≥ 100 nM
Cc1oc(-c2ccc(-c3ccccc3)cc2)nc1COc1ccc(-c2noc(=O)[nH]2)c(Cl)c1 [Example 30, 3-[4-(2-Biphenyl-4-yl-5-methyl-oxazol-4-ylmethoxy)-2-chloro-phenyl]-4H-[1,2,4]oxadiazol-5-one] | ≥ 100 nM
COc1ccc(-c2nc(COc3ccc(-c4noc(=O)[nH]4)c(Cl)c3)c(C)o2)cc1 [Example 31, 3-{2-Chloro-4-[2-(4-methoxy-phenyl)-5-methyl-oxazol-4-ylmethoxy]-phenyl}-4H-[1,2,4]oxadiazol-5-one] | ≥ 100 nM
Cc1sc(-c2ccc(S(F)(F)(F)(F)F)cc2)nc1CCOc1ccc(-c2noc(=O)[nH]2)c(Cl)c1 [Example 32] | ≥ 100 nM
